Measured values published in the supplement of paper PMC12819154, “High-throughput peptide-centric local stability assay extends protein–ligand identification to membrane proteins, tissues and bacteria” (Nature Structural & Molecular Biology, 2025).
The other results are listed elsewhere or left out. Most entries show no effect beyond the scatter of the controls.

By UniProt entry, the sequences of proteins in these tests, tags left out. Where a name states a change or a piece, a line headed by the entry shows the natural chain unless it says otherwise.
UniProt Q9D820: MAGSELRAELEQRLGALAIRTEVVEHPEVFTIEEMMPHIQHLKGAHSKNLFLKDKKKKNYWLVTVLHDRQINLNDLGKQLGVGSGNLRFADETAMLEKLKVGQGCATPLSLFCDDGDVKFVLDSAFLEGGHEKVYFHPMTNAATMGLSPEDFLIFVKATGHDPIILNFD
UniProt Q9D4F2: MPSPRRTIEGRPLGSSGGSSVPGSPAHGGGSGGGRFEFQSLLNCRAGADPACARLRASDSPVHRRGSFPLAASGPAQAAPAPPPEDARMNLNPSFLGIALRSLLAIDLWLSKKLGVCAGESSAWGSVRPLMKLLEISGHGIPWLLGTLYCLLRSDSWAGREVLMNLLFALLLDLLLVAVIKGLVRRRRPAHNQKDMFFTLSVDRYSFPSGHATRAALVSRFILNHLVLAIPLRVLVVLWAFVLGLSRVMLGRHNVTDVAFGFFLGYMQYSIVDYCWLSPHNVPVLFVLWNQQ
UniProt Q9D8W7: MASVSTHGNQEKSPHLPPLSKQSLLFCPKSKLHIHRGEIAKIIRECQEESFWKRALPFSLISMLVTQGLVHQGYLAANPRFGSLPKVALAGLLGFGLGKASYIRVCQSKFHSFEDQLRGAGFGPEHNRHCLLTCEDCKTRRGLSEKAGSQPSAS
UniProt Q9D1C3: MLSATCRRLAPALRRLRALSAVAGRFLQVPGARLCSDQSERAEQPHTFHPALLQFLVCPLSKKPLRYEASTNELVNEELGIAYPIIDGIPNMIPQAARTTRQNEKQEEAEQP
UniProt Q9D5D8: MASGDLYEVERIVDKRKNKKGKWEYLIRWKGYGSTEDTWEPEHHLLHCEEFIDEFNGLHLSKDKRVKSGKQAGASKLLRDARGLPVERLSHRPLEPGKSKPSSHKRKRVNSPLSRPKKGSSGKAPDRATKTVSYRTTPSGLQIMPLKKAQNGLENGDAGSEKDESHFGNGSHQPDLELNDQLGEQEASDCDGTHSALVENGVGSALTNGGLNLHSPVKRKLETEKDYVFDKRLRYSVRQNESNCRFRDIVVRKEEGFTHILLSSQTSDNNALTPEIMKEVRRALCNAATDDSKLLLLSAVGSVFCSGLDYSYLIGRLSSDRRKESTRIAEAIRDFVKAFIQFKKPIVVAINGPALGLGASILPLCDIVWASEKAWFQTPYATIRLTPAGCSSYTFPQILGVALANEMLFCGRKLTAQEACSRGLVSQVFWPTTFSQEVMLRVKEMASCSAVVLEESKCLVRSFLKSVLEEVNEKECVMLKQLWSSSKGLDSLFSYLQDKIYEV
UniProt Q9D3E6: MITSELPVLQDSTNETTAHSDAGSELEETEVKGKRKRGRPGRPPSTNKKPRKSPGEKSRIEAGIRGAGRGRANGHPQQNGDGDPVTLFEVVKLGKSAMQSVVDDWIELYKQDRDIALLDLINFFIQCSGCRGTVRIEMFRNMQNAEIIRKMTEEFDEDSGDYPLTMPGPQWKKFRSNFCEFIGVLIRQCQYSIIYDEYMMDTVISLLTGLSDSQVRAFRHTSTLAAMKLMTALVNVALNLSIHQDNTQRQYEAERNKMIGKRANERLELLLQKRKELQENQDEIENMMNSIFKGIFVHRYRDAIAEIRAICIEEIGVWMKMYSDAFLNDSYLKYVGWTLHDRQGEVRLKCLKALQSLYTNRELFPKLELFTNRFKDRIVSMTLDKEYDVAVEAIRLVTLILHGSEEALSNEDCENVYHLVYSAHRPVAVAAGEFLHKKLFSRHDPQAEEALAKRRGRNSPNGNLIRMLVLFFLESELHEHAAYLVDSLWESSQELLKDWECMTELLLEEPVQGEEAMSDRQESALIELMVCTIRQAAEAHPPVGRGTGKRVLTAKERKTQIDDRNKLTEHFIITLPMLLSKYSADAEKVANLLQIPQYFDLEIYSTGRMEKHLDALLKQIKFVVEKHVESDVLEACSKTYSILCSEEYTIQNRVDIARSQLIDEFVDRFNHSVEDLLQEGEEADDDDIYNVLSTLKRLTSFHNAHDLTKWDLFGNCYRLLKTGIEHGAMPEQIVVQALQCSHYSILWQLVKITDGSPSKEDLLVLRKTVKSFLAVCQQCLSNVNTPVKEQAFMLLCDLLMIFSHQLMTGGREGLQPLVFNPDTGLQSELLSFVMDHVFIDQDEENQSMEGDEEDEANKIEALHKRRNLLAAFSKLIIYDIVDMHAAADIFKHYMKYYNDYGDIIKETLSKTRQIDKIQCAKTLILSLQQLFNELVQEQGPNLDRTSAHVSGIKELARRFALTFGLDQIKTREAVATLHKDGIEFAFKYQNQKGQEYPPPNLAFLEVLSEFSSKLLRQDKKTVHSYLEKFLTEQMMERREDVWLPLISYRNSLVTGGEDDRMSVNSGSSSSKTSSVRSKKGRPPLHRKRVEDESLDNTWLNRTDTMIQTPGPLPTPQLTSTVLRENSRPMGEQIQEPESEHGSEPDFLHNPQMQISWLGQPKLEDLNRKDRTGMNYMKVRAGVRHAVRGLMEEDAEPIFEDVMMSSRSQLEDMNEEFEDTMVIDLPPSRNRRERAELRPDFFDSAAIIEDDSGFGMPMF
UniProt Q9D6R2: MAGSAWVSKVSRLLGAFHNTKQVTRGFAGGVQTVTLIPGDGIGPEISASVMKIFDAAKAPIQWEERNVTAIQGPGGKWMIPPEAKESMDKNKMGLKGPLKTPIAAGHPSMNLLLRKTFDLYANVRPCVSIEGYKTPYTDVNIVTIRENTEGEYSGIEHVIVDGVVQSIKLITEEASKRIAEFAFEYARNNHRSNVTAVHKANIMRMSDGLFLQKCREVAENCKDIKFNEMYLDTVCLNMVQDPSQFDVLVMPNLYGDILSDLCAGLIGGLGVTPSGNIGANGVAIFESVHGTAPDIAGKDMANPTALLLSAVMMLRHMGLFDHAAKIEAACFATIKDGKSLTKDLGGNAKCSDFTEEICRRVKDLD
UniProt Q9D554: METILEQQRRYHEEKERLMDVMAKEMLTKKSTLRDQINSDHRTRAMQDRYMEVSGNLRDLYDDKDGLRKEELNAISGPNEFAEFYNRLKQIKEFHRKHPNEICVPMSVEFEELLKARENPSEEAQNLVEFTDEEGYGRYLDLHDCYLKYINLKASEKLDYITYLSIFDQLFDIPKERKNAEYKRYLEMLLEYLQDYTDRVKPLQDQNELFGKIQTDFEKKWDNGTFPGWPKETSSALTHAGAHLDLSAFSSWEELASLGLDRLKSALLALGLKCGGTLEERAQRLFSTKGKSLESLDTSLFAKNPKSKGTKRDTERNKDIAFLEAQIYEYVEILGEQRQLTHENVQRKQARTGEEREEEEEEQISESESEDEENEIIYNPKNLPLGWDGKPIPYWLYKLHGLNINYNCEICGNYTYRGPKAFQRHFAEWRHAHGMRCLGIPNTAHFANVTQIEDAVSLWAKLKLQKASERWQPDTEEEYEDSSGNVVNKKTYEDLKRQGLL
UniProt Q9D1E8: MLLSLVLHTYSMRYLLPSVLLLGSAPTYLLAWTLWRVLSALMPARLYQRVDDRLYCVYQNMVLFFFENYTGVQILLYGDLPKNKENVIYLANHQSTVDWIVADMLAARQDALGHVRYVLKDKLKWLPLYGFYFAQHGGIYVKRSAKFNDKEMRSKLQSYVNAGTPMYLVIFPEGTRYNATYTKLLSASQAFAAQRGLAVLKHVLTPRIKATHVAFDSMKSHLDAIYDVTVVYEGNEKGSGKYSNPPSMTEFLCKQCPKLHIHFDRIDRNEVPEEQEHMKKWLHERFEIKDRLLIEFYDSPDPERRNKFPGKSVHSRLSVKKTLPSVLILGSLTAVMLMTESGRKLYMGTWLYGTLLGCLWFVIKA
UniProt Q9D1C8: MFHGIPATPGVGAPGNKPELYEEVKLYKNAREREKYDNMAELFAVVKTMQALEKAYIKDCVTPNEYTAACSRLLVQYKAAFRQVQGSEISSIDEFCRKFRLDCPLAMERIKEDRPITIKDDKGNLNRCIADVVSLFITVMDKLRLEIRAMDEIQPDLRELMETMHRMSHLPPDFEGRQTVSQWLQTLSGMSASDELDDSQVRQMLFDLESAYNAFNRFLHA

Each target was assayed with CN[C@@H]1C[C@H]2O[C@@](C)([C@@H]1OC)n1c3ccccc3c3c4c(c5c6ccccc6n2c5c31)C(=O)NC4 [staurosporine] (assay: log2 fold change of tryptic peptide abundance, ligand vs vehicle (limited proteolysis) (log2 ratio); higher = more trypsin-susceptible (destabilized)). Settings: ligand concentration: 20 uM; sample: mouse liver crude lysate; replicate design: treated separately.
In the case of “UniProt Q9D820 (peptide sequence: KNYWLVTVLHDR, peptide start residue: 58)”, the log2 fold change is reported as 0.24. With “UniProt Q9D4F2 (peptide sequence: ASDSPVHR, peptide start residue: 57)” the log2 fold change was 0.241. “UniProt Q9D8W7 (peptide sequence: QSLLFCPK, peptide start residue: 22)” was tested, and the log2 fold change was 0.184. Work on “UniProt Q9D1C3 (peptide sequence: AEQPHTFHPALLQFLVCPLSK, peptide start residue: 42)” yielded a log2 fold change of -0.135. “UniProt Q9D4C5 (peptide sequence: DNPSPEPQLDDIKR, peptide start residue: 162)” gave a log2 fold change of -0.234. With “UniProt Q9D5D8 (peptide sequence: TTPSGLQIMPLKK, peptide start residue: 136)” the log2 fold change was 0.352. Work on “UniProt Q9D3E6 (peptide sequence: FLTEQMMERR, peptide start residue: 1029)” yielded a log2 fold change of 0.336. Work on “UniProt Q9D6R2 (peptide sequence: MSDGLFLQK, peptide start residue: 206)” yielded a log2 fold change of -0.111. Work on “UniProt Q9D773 (peptide sequence: IRPLPPMK, peptide start residue: 287)” yielded a log2 fold change of 0.233. With “UniProt Q9D554 (peptide sequence: IQTDFEK, peptide start residue: 213)” the log2 fold change was -0.18. With “UniProt Q9D1E8 (peptide sequence: ATHVAFDSMK, peptide start residue: 210)” the log2 fold change was 0.556. With “UniProt Q9D1C8 (peptide sequence: AMDEIQPDLR, peptide start residue: 149)” the log2 fold change was -0.0702.
